The values below come from PubChem BioAssay AID330 (DTP/NCI, 2004).

The list shows only some results of the screen, not a fair sample: it is rich in T/C values a quarter to a half above the control, in often repeated tests (any T/C) and in doses without a T/C. Further doses and runs are listed elsewhere. T/C is the treated group as % of the vehicle group. Some doses have a count of surviving animals in place of a T/C: the source holds a T/C of zero for them, seemingly a mark for toxic or unscored doses. Some survivor counts are full or nearly so, which does not show that the dose was tolerated: the source hardly ever lists a survival T/C far under the control, and the zero likely stands for such cases as well. Survivors were counted at the toxicity check, usually on the fifth day, unless a day is given; later deaths do not show. Schedule codes are those of the source, read here as Q, the interval in days (D) or hours (H), X, the number of doses. Some doses were run more than once; the results are listed from low to high. Signs of the kind (2×) give the number of equal values in this list. For survival time, this PubChem deposit counts one and a half times the control or more as active, and values a quarter to a half above the control carry no call in these data; other NCI protocols may use other cut-offs. Some T/C values carry the count of animals alive at the toxicity check (mostly the fifth day); without a count, all were alive then.

The assay relates to P388 leukemia ip, CD2F1 mice, survival T/C. Description: NCI In Vivo Anticancer Drug Screen. Data for tumor model P388 Leukemia (intraperitoneal) in CD2F1 (CDF1) mice. Particulars: T/C endpoint: median survival time, higher T/C = longer survival.
Where [1] appears, read: dose: 5.0 mg/kg/injection, schedule: Q01DX009 (ip), vehicle: saline.
Setting [2] is: dose: 10.0 mg/kg/injection, schedule: Q01DX009 (ip), vehicle: saline.
The mark [3] stands for this setting: dose: 25.0 mg/kg/injection, schedule: Q01DX009 (ip), vehicle: saline.
Setting [4] is: dose: 37.5 mg/kg/injection, schedule: Q01DX009 (ip), vehicle: water.
[5] abbreviates: dose: 200.0 mg/kg/injection, schedule: Q01DX005 (ip), vehicle: saline with Tween-80.
[6] abbreviates: dose: 100.0 mg/kg/injection, schedule: Q01DX009 (ip), vehicle: saline.
Where [7] appears, read: dose: 100.0 mg/kg/injection, schedule: Q01DX005 (ip), vehicle: Klucel (hydroxypropylcellulose) (HPC).
The mark [8] stands for this setting: dose: 120.0 mg/kg/injection, schedule: Q01DX005 (ip), vehicle: saline with Tween-80.
The mark [9] stands for this setting: dose: 240.0 mg/kg/injection, schedule: Q01DX005 (ip), vehicle: saline with Tween-80.

Take `N=[N+]=CC(=O)OCC(N)C(=O)O` (stereo unspecified): the T/C runs as follows: (dose: 2.3 mg/kg/injection, schedule: Q01DX009 (ip), vehicle: water) 144 % of control; (dose: 2.35 mg/kg/injection, schedule: Q01DX009 (ip), vehicle: water) 134 % of control; (dose: 2.5 mg/kg/injection, schedule: Q01DX009 (ip), vehicle: saline) 128 % of control; (dose: 3.24 mg/kg/injection, schedule: Q01DX009 (ip), vehicle: saline) 136 % of control; (dose: 4.7 mg/kg/injection, schedule: Q01DX009 (ip), vehicle: water, evaluated on day 30) 116, 131, 141 % of control; (dose: 4.7 mg/kg/injection, schedule: Q01DX009 (ip), vehicle: water, evaluated on day 45) 141 and 148 % of control. The T/C under setting [1] is 140 and 142 % of control; the T/C (dose: 5.4 mg/kg/injection, schedule: Q01DX009 (ip), vehicle: saline) is 132 and 140 % of control; the T/C (dose: 9.0 mg/kg/injection, schedule: Q01DX009 (ip), vehicle: saline) was 138 and 141 % of control; the T/C (dose: 9.4 mg/kg/injection, schedule: Q01DX009 (ip), vehicle: water, evaluated on day 30) is 133, 150, 156 % of control; the T/C (dose: 9.4 mg/kg/injection, schedule: Q01DX009 (ip), vehicle: water, evaluated on day 45) was 146 and 157 % of control; the T/C under setting [2] was 133 and 142 % of control. Moreover, the T/C was 129 % of control (dose: 12.5 mg/kg/injection, schedule: Q04DX003 (ip), vehicle: water); 144 and 148 % of control (dose: 15.0 mg/kg/injection, schedule: Q01DX009 (ip), vehicle: saline); 142 % of control (dose: 18.8 mg/kg/injection, schedule: Q01DX009 (ip), vehicle: water); 143 % of control (dose: 20.0 mg/kg/injection, schedule: Q01DX009 (ip), vehicle: saline); 149 % of control under setting [3]; 154 % of control under setting [4]. Besides, the survivor count reads like this: (dose: 18.75 mg/kg/injection, schedule: Q01DX009 (ip), vehicle: water) 3 of 4 and 4 of 4; under setting [4], 3 of 4, 4 of 4 (2×), 6 of 6.

For `Cn1c(N)c2c(=O)n(C)c3c(c2c(C#N)c1=O)CCSc1ccccc1-3`, the survivor count under setting [5] was 5 of 6.

Take `CC/C(=C(\CC)c1ccc(OCCN(C)C)cc1)c1ccc(OCCN(C)C)cc1`: the survivor count runs as follows: (dose: 25.0 mg/kg/injection, schedule: Q01DX005 (ip), vehicle: saline) 3 of 6; (dose: 50.0 mg/kg/injection, schedule: Q01DX005 (ip), vehicle: saline) 0 of 6; (dose: 100.0 mg/kg/injection, schedule: Q01DX005 (ip), vehicle: saline) 0 of 6; (dose: 200.0 mg/kg/injection, schedule: Q01DX005 (ip), vehicle: saline) 0 of 6.

With `O=C(O)C12CC3CC(CC(C3)C1)C2.O=C(O)C12CC3CC(CC(C3)C1)C2.O=C(O)C12CC3CC(CC(C3)C1)C2.O=C(O)C12CC3CC(CC(C3)C1)C2.[Rh].[Rh]`, the survivor count under setting [6] is given as 6 of 6.

As to `COc1ccc2c(c1OC)N(C)CC1=C2OC(C)(C)C2C1CC1(C)CC2c2c(c3ccc(OC)c(OC)c3n(C)c2=O)O1` (stereo unspecified), the survivor count under setting [7] is 6 of 6.

Turning to `COC(=O)Nc1cn2ccc(C(Cl)=C(Cl)Cl)cc2n1`, the survivor count (dose: 25.0 mg/kg/injection, schedule: Q01DX009 (ip), vehicle: Klucel (hydroxypropylcellulose) (HPC)) is recorded as 4 of 6. Moreover, under “dose: 200.0 mg/kg/injection, schedule: Q01DX009 (ip), vehicle: Klucel (hydroxypropylcellulose) (HPC)”, the T/C is 137 % of control [5 of 6 alive].

Turning to `Cc1ccc(C(c2ccccc2)c2ccc(C)cc2O)c(O)c1`, the survivor count (dose: 200.0 mg/kg/injection, schedule: Q01DX009 (ip), vehicle: saline with Tween-80) was 5 of 6.

As for `CN=C(N)N/N=C/COc1ccc(C)cc1`, the survivor count (dose: 240.0 mg/kg/injection, schedule: Q01DX005 (ip), vehicle: saline) is 0 of 6.

Regarding `COc1ccc(Cc2cc3c(cc2OCC(=O)Nc2ccccn2)OCO3)cc1`, under “dose: 50.0 mg/kg/injection, schedule: Q01DX005 (ip), vehicle: saline with Tween-80”, the survivor count is listed as 6 of 6.

As for `CC1NNC(=S)NN1`, the survivor count (dose: 60.0 mg/kg/injection, schedule: Q01DX005 (ip), vehicle: saline with Tween-80) was 0 of 6 and 1 of 6; the survivor count under setting [8] was 0 of 6; the survivor count under setting [9] is reported as 0 of 6.

Turning to `NC(=S)N/N=C1/C(=O)N(c2ccc(Cl)cc2)C(=O)C1C(=O)Nc1ccc(Cl)cc1` (stereo unspecified), the survivor count reads like this: under setting [8], 1 of 6; under setting [9], 0 of 6.

Turning to `O=C(O)CCc1ccc(O)c(O)c1`, the survivor count (dose: 600.0 mg/kg/injection, schedule: Q01DX009 (ip), vehicle: saline) was 2 of 6 and 4 of 6.

As to `Cc1c(C(N)=O)c2ccccc2c2ccccc12`, the survivor count by setting is: (dose: 100.0 mg/kg/injection, schedule: Q01DX005 (ip), vehicle: saline with Tween-80) 4 of 5; under setting [5], 5 of 5.

On to `O=C(Nc1ccc(C2=NCCCN2)cc1)c1ccc(C(=O)Nc2ccc(C3=NCCCN3)cc2)nc1`, for which the T/C runs as follows: under setting [1], 127 % of control; under setting [2], 145 % of control. Further, the survivor count by setting is: (dose: 20.0 mg/kg/injection, schedule: Q04DX003 (ip), vehicle: saline) 3 of 6; (dose: 100.0 mg/kg/injection, schedule: Q04DX003 (ip), vehicle: saline) 0 of 6; (dose: 200.0 mg/kg/injection, schedule: Q04DX003 (ip), vehicle: saline) 0 of 6; (dose: 400.0 mg/kg/injection, schedule: Q04DX003 (ip), vehicle: saline) 0 of 6.

As for `O=C1CC2C1C1C=CC2n2c(=O)n(-c3ccccc3)c(=O)n21` (stereo unspecified), the survivor count by setting is: (dose: 100.0 mg/kg/injection, schedule: Q04DX002 (ip), vehicle: saline with Tween-80) 6 of 6; (dose: 200.0 mg/kg/injection, schedule: Q04DX002 (ip), vehicle: saline with Tween-80) 3 of 6; (dose: 400.0 mg/kg/injection, schedule: Q04DX002 (ip), vehicle: saline with Tween-80) 2 of 6.

On to `COC(=O)NC1C(C)OC(OC2C/C=C(/C)C3C=CC4C(OC5CC(OC6CC(O)C(OC7CC(O)C(OC)C(C)O7)C(C)O6)C(O)C(C)O5)C(C)CC(C)C4C3(C)/C(O)=C3\C(=O)OC4(CC(C)C(CO)=CC4/C=C\2C)C3=O)CC1(C)[N+](=O)[O-]` (stereo unspecified), for which the T/C runs as follows: (dose: 25.0 mg/kg/injection, schedule: Q01DX005 (ip), vehicle: Klucel (hydroxypropylcellulose) (HPC)) 126 % of control; under setting [7], 141 and 149 % of control. For the same molecule, the survivor count is, setting by setting: (dose: 200.0 mg/kg/injection, schedule: Q01DX005 (ip), vehicle: Klucel (hydroxypropylcellulose) (HPC)) 0 of 6 and 3 of 6; (dose: 400.0 mg/kg/injection, schedule: Q01DX005 (ip), vehicle: Klucel (hydroxypropylcellulose) (HPC)) 0 of 6.

As for `O=c1oc2c(O)c(O)cc3c(=O)oc4c(O)c(O)cc1c4c23`, the T/C is 140 % of control (dose: 50.0 mg/kg/injection, schedule: Q01DX009 (ip), vehicle: other) and 141 % of control (dose: 100.0 mg/kg/injection, schedule: Q01DX009 (ip), vehicle: other).

Turning to `C=C(NC(=O)C(=C)NC(=O)c1csc(C2=NC3c4csc(n4)C4NC(=O)c5csc(n5)C(C(C)(O)C(C)O)NC(=O)C5CSC(=N5)/C(=C/C)NC(=O)C(C(C)O)NC(=O)c5csc(n5)C3(CC2)NC(=O)C(C)NC(=O)C(=C)NC(=O)C(=C)NC(=O)C(C(C)C)NC2C=Cc3c(C(C)O)cc(nc3C2O)C(=O)OC4C)n1)C(N)=O` (stereo unspecified), the T/C was 127 % of control (dose: 6.25 mg/kg/injection, schedule: Q01DX009 (ip), vehicle: saline); 134 % of control (dose: 12.5 mg/kg/injection, schedule: Q01DX009 (ip), vehicle: saline); 131 and 138 % of control under setting [3]; 126 % of control (dose: 50.0 mg/kg/injection, schedule: Q01DX009 (ip), vehicle: saline); 149 % of control under setting [6]; 142 % of control (dose: 200.0 mg/kg/injection, schedule: Q01DX009 (ip), vehicle: saline).
